# According to patent US6974816B2, “Combination for the treatment of endothelial damage” (Licentia Ltd., priority 2001, dated 2005):
# Experiment: Serum lipid profile
# Assay type: in vivo, New Zealand White rabbits
# Conditions: mean ± SEM
structure (smiles),measurement,setting,value
"Cc1ccc(NC(=O)c2ccc(CN3CCN(C)CC3)cc2)cc1Nc1nccc(-c2cccnc2)n1 [STI571, N-{5-[4-(4-methyl-piperazino-methyl)-benzoylamido]-2-methylphenyl}-4-(3-pyridyl)-2-pyrimidine-amine]",Lipids: HDL,3-week endpoint,0.69 ± 0.11 mM
same,Lipids: LDL,3-week endpoint,10.2 ± 2.3 mM
same,Lipids: S-Chol,"3-week endpoint, serum cholesterol",11.7 ± 2.4 mM
same,Lipids: S-TG,"3-week endpoint, serum triglyceride",1.8 ± 0.3 mM
same,Lipids: HDL,6-week end point,0.53 ± 0.05 mM
same,Lipids: LDL,6-week end point,14.5 ± 3.2 mM
same,Lipids: S-Chol,6-week end point,16.5 ± 3.5 mM
same,Lipids: S-TG,6-week end point,3.3 ± 0.6 mM
